Reference: patent US8158622B2, “Pyrrolopyridine-2-carboxylic acid amide inhibitors of glycogen phosphorylase” (Prosidion Limited, priority 2003, dated 2012)
Some of these results come from one statement about several compounds together. Some compounds share one range, which may span the group rather than tell each member. One block for each compound: values may come before it.

Target: T1, Rabbit muscle glycogen phosphorylase a (Oryctolagus cuniculus, UniProt P00489)
T1 construct: purchased Sigma P1261
T1 sequence (P00489 2-843 limits assumed): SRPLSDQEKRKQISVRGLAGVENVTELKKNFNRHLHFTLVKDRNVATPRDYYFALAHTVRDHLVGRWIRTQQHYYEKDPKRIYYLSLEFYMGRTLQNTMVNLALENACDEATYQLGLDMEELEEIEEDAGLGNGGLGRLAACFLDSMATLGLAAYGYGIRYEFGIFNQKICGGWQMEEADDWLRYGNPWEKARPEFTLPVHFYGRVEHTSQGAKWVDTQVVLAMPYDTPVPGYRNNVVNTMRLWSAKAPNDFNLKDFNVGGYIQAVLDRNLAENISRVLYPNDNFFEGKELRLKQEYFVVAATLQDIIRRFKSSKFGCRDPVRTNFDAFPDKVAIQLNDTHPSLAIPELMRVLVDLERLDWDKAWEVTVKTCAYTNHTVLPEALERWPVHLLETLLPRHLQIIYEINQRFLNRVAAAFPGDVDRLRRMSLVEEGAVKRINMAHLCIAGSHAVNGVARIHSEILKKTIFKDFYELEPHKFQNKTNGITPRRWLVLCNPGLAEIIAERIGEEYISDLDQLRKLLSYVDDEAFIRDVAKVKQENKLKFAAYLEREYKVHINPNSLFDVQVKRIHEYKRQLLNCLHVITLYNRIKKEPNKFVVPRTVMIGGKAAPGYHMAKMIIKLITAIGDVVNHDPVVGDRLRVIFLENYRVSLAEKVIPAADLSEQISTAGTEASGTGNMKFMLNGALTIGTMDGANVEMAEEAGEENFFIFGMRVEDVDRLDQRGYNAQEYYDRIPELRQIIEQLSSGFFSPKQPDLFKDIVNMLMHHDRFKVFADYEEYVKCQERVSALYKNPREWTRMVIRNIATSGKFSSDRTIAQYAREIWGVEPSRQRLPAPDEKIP
Test: Glycogen phosphorylase assay in vitro (reverse direction, malachite green phosphate detection)
Format: biochemical
Conditions: 50 mM Hepes pH 7.2, 7.5 mM glucose, 0.5 mM glucose-1-phosphate, 1 mg/mL glycogen, 30° C. for 30 min
Excerpt: α-D-Glucose-1-phosphate (disodium salt), Glycogen, D-Glucose, Malachite Green Hydrochloride, Ammonium Molybdate tetrahydrate, BSA, HEPES and rabbit muscle phosphorylase α (P1261) were purchased from Sigma. All other reagents were analytical grade.
Glycogen Phosphorylase Assay In Vitro:
An assay for glycogen phosphorylase activity in the reverse direction was developed based on the method described by Engers et al., Can. J. Biochem., 1970, 48, 746-754]. Rabbit muscle glycogen phosphorylase a (Sigma) was reconstituted at a stock concentration of 100 μg/mL in 25 mM Tris/HCl. […] in a 96-well plate in a final volume of 100 μL containing 50 mM Hepes pH 7.2, 7.5 mM glucose, 0.5 mM glucose-1-phosphate and 1 mg/mL glycogen. After incubation at 30° C. for 30 min, the inorganic phosphate released from glucose-1-phosphate was measured by the addition of 150 μL of malachite green/molybdate solution prepared as follows: 5 mL of 4.2% ammonium molybdate in 4N HCl, 15 mL of 0.045% malachite green, 50 μL of Tween 20. Following a 30 min incubation at rt, the absorbance was measured at 620 nm. For IC50 determination, 10 μL of a serial dilution of compound (100 μM to 0.004 μM) in DMSO was added to each reaction in duplicate with the equivalent concentration of DMSO added to the control uninhibited reaction. Dose response curves were then obtained by plotting % inhibition versus log10 compound concentration. IC50 is defined as the concentration of compound achieving 50% inhibition under the assay conditions described.

Structure (SMILES): COC(=O)[C@H](O)[C@H](Cc1ccccc1)NC(=O)c1cc2cc(Cl)ncc2[nH]1 [Example 43, (S)-3-[(5-Chloro-1H-pyrrolo[2,3-c]pyridine-2-carbonyl)amino]-(R)-2-hydroxy-4-phenylbutyric acid methyl ester]
IC50: 0.07 to 62.8 µM

Structure (SMILES): O=C(N[C@@H](Cc1ccccc1)[C@@H](O)C(=O)O)c1cc2cc(Cl)ncc2[nH]1 [Example 44, (S)-3-[(5-Chloro-1H-pyrrolo[2,3-c]pyridine-2-carbonyl)amino]-(R)-2-hydroxy-4-phenylbutyric acid]
IC50: 0.07 to 62.8 µM

Structure (SMILES): COc1ccc(C(=O)CNC(=O)c2cc3cc(Cl)ncc3[nH]2)cc1 [Example 45, 5-Chloro-1H-pyrrolo[2,3-c]pyridine-2-carboxylic acid [2-(4-methoxyphenyl)-2-oxoethyl]amide]
IC50: 0.07 to 62.8 µM

Structure (SMILES): O=C(CNC(=O)c1cc2cc(Cl)ncc2[nH]1)c1ccc(F)c(F)c1 [Example 46]
IC50: 0.07 to 62.8 µM

Structure (SMILES): O=C(CNC(=O)c1cc2cc(Cl)ncc2[nH]1)c1ccc(F)cc1 [Example 48, 5-chloro-1H-pyrrolo[2,3-c]pyridine-2-carboxylic acid [2-(4-fluorophenyl)-2-oxoethyl]amide]
IC50: 0.07 to 62.8 µM

Results, then the compound that gave them:

IC50: 0.07 to 62.8 µM
Structure (SMILES): O=C(N[C@@H](Cc1ccccc1)C(=O)NC1CCOCC1)c1cc2cc(Cl)ncc2[nH]1 [Example 38, 5-Chloro-1H-pyrrolo[2,3-c]pyridine-2-carboxylic acid [2-phenyl-1-(S)-(tetrahydropyran-4-ylcarbamoyl)ethyl]amide]

IC50: 0.07 to 62.8 µM
Structure (SMILES): CCOC(=O)CNC(=O)c1cc2cc(Cl)ncc2[nH]1 [Example 39, [(5-Chloro-1H-pyrrolo[2,3-c]pyridine-2-carbonyl)amino]acetic acid ethyl ester]

IC50: 0.07 to 62.8 µM
Structure (SMILES): O=C(O)CNC(=O)c1cc2cc(Cl)ncc2[nH]1 [Example 40, [(5-Chloro-1H-pyrrolo[2,3-c]pyridine-2-carbonyl)amino]acetic acid]

IC50: 0.07 to 62.8 µM
Structure (SMILES): CCOC(=O)[C@H](Cc1ccccc1)NC(=O)c1cc2cc(Cl)ncc2[nH]1 [Example 41, 2-(S)-[(5-Chloro-1H-pyrrolo[2,3-c]pyridine-2-carbonyl)amino]-3-phenylpropionic acid ethyl ester]

IC50: 0.07 to 62.8 µM
Structure (SMILES): O=C(N[C@@H](Cc1ccccc1)C(=O)O)c1cc2cc(Cl)ncc2[nH]1 [Example 42, 2-(S)-[(5-Chloro-1H-pyrrolo[2,3-c]pyridine-2-carbonyl)amino]-3-phenylpropionic acid]
